Counter-ions that a name gives are not always drawn. Some of the results follow. Hit calls seldom repeat between salt and free forms of one compound.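 In K562 cells expressing nanoluciferase-fused kinases, luminescence was recorded at 4 h intervals between 2 and 18 h, normalized as percent of control with DMSO at 100% and a positive control at 0%. A significant (2 sigma) signal drop marks a time point as decreased. The authors' rule for a hit is not shown and takes in more than the number of time points.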
Tests used:
Assay in all cases: kinase-Nluc reporter destabilization hit call (1 = scored as downregulated) (binary); higher = compound decreases kinase abundance
Details in all cases: K562; 2-18 h
[1] = target: RET (UniProt P07949)
[2] = target: RET_M918T (clone: RET_mut) (UniProt P07949)
[3] = target: RIOK1 (UniProt Q9BRS2)
[4] = target: RIPK1 (UniProt Q13546)
[5] = target: RIPK2 (UniProt O43353)
[6] = target: ROR2 (UniProt Q01974)
[7] = target: RPS6KA1 (UniProt Q15418)
[8] = target: SPHK1 (UniProt Q9NYA1)
[9] = target: SRC (UniProt P12931)
[10] = target: STK24 (UniProt Q9Y6E0)

The chains behind the UniProt entries cited, without tags or fusion partners. Where a name states a change or a piece, a line headed by the entry shows the natural chain unless it says otherwise.
UniProt P07949, whole entry, looked up: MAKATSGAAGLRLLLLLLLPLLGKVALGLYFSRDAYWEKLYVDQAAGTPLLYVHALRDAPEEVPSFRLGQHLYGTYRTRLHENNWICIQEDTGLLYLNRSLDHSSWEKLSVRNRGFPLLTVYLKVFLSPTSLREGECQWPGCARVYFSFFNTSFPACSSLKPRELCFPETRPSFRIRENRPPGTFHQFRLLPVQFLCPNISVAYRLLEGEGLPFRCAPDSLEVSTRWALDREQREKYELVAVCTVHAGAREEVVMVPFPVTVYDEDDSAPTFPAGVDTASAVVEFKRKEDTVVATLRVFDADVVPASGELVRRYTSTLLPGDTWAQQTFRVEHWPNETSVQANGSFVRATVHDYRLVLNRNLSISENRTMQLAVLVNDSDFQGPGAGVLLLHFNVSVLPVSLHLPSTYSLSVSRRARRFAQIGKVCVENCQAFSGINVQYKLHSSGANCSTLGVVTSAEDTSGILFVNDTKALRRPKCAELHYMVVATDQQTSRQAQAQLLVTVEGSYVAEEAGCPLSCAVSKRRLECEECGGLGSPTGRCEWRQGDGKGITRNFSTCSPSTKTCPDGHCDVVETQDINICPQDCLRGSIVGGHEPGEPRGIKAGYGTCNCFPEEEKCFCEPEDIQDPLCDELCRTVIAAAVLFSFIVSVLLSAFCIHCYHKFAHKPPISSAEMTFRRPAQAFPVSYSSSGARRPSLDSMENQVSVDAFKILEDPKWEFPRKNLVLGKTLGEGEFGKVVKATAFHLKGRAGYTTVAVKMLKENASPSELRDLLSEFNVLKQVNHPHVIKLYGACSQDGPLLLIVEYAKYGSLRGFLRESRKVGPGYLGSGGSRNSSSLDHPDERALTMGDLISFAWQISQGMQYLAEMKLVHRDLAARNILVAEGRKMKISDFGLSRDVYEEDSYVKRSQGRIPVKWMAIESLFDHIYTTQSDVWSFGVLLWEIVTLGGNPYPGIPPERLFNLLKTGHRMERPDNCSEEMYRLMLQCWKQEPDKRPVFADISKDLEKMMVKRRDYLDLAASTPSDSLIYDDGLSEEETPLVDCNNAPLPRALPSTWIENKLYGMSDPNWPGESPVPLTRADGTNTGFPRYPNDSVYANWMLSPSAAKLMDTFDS
UniProt P07949, whole entry M918T, looked up: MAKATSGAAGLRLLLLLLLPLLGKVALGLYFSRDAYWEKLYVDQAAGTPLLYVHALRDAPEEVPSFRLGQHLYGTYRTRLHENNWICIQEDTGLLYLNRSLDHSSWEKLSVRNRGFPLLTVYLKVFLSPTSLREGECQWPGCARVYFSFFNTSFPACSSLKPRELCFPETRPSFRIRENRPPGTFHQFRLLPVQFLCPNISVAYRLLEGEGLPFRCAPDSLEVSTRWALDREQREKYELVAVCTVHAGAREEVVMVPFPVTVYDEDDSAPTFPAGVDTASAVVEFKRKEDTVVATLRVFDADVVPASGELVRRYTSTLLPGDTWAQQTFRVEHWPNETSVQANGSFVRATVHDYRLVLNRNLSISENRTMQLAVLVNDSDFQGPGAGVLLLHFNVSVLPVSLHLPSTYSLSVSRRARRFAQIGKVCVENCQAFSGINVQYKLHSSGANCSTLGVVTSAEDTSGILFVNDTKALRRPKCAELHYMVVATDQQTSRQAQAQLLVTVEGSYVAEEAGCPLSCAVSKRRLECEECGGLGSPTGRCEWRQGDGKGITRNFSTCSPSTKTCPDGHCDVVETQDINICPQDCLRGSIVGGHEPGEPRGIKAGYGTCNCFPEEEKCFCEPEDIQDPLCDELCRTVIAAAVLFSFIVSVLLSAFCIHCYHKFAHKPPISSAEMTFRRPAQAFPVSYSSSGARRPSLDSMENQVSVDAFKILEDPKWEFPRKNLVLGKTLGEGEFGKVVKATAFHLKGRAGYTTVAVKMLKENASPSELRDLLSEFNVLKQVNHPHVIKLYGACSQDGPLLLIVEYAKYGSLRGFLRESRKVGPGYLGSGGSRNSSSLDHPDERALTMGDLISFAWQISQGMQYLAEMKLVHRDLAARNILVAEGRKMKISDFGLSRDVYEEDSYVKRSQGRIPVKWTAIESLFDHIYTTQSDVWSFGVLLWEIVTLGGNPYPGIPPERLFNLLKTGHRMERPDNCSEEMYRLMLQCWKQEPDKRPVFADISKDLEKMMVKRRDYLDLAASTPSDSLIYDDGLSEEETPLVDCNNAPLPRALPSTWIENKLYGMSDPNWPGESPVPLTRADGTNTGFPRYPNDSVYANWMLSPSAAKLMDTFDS
UniProt Q9BRS2: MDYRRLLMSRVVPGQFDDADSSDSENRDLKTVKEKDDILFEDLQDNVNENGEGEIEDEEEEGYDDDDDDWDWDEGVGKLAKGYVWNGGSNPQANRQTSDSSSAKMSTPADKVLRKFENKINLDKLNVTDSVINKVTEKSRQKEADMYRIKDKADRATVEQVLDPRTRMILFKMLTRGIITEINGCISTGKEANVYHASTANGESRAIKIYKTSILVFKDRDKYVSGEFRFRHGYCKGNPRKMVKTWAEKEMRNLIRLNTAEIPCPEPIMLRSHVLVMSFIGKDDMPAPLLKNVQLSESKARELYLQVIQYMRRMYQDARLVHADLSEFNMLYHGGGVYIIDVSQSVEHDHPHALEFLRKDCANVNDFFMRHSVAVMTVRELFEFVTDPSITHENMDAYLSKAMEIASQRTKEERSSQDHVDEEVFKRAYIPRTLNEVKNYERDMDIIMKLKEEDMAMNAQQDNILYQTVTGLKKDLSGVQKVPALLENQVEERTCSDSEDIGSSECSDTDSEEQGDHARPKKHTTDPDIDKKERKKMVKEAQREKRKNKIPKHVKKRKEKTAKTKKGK
UniProt Q13546: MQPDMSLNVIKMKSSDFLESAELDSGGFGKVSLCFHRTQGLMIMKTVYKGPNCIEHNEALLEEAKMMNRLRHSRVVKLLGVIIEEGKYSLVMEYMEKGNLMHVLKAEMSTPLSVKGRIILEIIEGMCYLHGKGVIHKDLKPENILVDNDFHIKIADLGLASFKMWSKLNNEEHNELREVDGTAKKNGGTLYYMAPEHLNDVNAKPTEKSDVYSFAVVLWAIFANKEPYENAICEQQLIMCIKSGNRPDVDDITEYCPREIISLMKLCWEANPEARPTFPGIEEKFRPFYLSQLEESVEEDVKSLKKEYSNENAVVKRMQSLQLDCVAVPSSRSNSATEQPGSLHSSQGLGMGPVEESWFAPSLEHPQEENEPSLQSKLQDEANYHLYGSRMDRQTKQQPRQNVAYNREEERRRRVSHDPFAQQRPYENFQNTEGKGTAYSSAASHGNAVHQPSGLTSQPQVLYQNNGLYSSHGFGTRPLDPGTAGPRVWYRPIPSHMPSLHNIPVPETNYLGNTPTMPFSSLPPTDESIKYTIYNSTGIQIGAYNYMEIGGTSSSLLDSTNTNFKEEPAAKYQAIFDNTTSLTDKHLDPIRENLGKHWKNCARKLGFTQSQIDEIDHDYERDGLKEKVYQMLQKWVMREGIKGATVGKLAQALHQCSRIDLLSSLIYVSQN
UniProt Q01974, whole entry: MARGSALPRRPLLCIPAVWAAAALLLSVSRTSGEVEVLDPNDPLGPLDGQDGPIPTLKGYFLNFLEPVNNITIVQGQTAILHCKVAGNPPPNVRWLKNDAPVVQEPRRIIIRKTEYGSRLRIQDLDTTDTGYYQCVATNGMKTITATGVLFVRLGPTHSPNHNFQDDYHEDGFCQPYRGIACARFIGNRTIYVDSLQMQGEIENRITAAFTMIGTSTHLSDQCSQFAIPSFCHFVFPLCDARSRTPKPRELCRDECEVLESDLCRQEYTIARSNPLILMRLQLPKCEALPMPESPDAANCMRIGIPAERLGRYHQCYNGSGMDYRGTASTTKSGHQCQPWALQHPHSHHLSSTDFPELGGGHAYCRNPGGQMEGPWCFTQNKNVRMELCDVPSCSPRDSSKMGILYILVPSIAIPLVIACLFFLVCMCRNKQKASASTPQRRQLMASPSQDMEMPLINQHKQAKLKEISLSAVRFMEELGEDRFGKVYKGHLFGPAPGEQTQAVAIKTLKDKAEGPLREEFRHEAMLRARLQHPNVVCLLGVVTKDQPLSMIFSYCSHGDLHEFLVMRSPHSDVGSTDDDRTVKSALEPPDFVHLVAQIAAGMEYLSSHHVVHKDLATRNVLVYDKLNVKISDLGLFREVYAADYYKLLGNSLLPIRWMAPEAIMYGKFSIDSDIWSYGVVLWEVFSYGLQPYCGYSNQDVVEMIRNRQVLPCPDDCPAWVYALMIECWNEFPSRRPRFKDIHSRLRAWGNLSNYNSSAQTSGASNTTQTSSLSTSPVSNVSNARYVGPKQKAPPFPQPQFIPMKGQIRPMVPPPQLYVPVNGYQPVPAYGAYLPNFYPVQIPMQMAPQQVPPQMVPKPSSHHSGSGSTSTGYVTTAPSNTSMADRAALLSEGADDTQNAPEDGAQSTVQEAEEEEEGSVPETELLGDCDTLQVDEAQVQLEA
UniProt Q15418, whole entry: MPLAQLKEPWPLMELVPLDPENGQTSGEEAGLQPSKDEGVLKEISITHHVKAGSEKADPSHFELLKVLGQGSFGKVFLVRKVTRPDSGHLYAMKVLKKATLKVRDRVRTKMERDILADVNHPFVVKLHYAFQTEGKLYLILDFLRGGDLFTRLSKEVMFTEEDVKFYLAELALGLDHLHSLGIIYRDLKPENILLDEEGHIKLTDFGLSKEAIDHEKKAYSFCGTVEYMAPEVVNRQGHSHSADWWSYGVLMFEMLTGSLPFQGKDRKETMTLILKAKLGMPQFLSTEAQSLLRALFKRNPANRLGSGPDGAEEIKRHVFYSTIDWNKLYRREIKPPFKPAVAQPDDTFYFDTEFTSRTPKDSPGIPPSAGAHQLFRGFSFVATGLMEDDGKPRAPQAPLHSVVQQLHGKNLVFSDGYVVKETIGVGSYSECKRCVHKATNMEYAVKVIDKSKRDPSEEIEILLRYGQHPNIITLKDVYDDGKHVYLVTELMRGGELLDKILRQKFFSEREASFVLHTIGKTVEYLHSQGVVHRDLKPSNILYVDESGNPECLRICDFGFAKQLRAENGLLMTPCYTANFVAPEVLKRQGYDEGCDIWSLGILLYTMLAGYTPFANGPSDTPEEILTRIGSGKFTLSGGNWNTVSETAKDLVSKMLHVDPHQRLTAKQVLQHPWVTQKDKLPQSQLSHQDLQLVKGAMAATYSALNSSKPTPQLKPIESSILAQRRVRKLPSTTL
UniProt Q9NYA1, whole entry: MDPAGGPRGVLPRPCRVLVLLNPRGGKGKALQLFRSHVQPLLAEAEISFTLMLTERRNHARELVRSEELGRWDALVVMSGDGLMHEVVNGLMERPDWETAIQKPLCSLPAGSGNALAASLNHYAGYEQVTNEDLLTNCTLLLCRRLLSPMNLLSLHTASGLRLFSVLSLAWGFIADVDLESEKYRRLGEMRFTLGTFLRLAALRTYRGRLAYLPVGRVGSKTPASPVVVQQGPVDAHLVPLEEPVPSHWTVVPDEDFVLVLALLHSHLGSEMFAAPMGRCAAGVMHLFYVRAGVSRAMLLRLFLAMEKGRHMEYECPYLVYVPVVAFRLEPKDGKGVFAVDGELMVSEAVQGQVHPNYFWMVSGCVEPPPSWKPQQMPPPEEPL
UniProt Q9Y6E0: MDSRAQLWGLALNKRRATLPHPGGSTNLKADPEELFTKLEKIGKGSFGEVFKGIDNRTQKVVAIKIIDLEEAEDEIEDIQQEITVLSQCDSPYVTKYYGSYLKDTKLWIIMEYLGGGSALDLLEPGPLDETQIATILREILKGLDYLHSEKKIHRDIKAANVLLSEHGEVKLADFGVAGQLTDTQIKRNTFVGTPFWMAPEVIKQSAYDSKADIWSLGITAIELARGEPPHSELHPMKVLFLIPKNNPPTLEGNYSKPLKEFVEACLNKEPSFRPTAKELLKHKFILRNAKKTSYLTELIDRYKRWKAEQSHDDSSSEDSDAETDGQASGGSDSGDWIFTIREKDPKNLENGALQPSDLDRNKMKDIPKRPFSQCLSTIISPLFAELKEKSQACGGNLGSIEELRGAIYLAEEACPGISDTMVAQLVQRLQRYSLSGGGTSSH

Measured: kinase-Nluc reporter destabilization hit call

OC(COc1ccc(C(F)(F)F)cc1)CN(Cc1ccccc1)Cc1ccccc1 (stereo not given) (2.5 µM)
inactive: [1] 0 | [2] 0 | [3] 0 | [4] 0 | [5] 0 | [6] 0 | [7] 0 | [8] 0 | [9] 0 | [10] 0

NCCN1CCN(C/C=C/C(=O)N2CCC[C@@H](n3nc(-c4ccc(Oc5ccccc5)cc4)c4c(N)ncnc43)C2)CC1 [Ibrutinib-MPEA] (10 µM)
inactive: [1] 0 | [2] 0 | [3] 0 | [4] 0 | [5] 0 | [6] 0 | [7] 0 | [8] 0 | [9] 0 | [10] 0

CC(=O)c1c(C)c2cnc(Nc3ccc(N4CCN(CCCCNC(=O)COc5cccc6c5C(=O)N(C5CCC(=O)NC5=O)C6=O)CC4)cn3)nc2n(C2CCCC2)c1=O (stereo not given) (10 µM)
inactive: [1] 0 | [2] 0 | [3] 0 | [4] 0 | [5] 0 | [6] 0 | [7] 0 | [8] 0 | [9] 0 | [10] 0

COc1ccc2[nH]cc(/C=C3\C(=O)Nc4ccc(NC(=O)CCN5CCCCC5)cc43)c2c1 (2.5 µM)
inactive: [1] 0 | [2] 0 | [3] 0 | [4] 0 | [5] 0 | [6] 0 | [7] 0 | [8] 0 | [9] 0 | [10] 0

NC1(Cc2ccc(Cl)cc2)CCN(c2ncnc3[nH]ccc23)CC1 (10 µM)
inactive: [1] 0 | [2] 0 | [3] 0 | [4] 0 | [5] 0 | [6] 0 | [7] 0 | [8] 0 | [9] 0 | [10] 0

C[C@@]1(O)CCC[C@H]1n1c(=O)c(C(F)F)cc2cnc(NC3CCN(S(C)(=O)=O)CC3)nc21 (2.5 µM)
inactive: [1] 0 | [2] 0 | [3] 0 | [4] 0 | [5] 0 | [6] 0 | [7] 0 | [8] 0 | [9] 0 | [10] 0

COCCOc1cnc(Sc2cc(C)c(-c3csc(NC(=O)c4ccncc4)n3)c(C)c2)cn1 [T-1101 (tosylate)] (2.5 µM)
inactive: [1] 0 | [2] 0 | [3] 0 | [4] 0 | [5] 0 | [6] 0 | [7] 0 | [8] 0 | [9] 0 | [10] 0

Cc1c(CN2CCN(C(=O)[C@H](C)O)CC2)sc2c(N3CCOCC3)nc(-c3cnc(N)nc3)nc12 [Apitolisib] (10 µM)
inactive: [1] 0 | [2] 0 | [3] 0 | [4] 0 | [5] 0 | [6] 0 | [7] 0 | [8] 0 | [9] 0 | [10] 0

OC[C@H]1O[C@@H](Oc2cc3c(O)cc(O)cc3[o+]c2-c2cc(O)c(O)c(O)c2)[C@H](O)[C@@H](O)[C@@H]1O [Delphinidin 3-glucoside (chloride)] (10 µM)
inactive: [1] 0 | [2] 0 | [3] 0 | [4] 0 | [5] 0 | [6] 0 | [7] 0 | [8] 0 | [9] 0 | [10] 0

CN1CCN(c2ccc(C(=O)Nc3cc(-c4cccc(NS(=O)(=O)c5ccccc5)c4)[nH]n3)cc2)CC1 [BPR1J-097 Hydrochloride] (2.5 µM)
inactive: [1] 0 | [2] 0 | [3] 0 | [4] 0 | [5] 0 | [6] 0 | [7] 0 | [8] 0 | [9] 0 | [10] 0

Cc1noc(C)c1-c1ccc(-c2cc(C(N)=O)c(NC(N)=O)s2)c(O[C@H]2CCNC2)c1 (10 µM)
inactive: [1] 0 | [2] 0 | [3] 0 | [4] 0 | [5] 0 | [6] 0 | [7] 0 | [8] 0 | [9] 0 | [10] 0

CCN(CC)c1ccc2cc(C(=O)N3CCN(C(=O)C4=Cc5c(Br)cccc5S4(=O)=O)CC3)c(=O)oc2c1 (2 µM)
inactive: [1] 0 | [2] 0 | [3] 0 | [4] 0 | [5] 0 | [6] 0 | [7] 0 | [8] 0 | [9] 0 | [10] 0

Cc1cc(NC(=O)c2cccc(NC(=O)/C=C/CN(C)C)c2)ccc1Nc1nccc(-c2cccnc2)n1 (10 µM)
inactive: [1] 0 | [2] 0 | [3] 0 | [4] 0 | [5] 0 | [6] 0 | [7] 0 | [8] 0 | [9] 0 | [10] 0

O=C(NCCCNC(=O)Nc1cccc(C2=NCCN2)c1)Nc1cccc(C2=NCCN2)c1 [p32 Inhibitor M36] (10 µM)
inactive: [1] 0 | [2] 0 | [3] 0 | [4] 0 | [5] 0 | [6] 0 | [7] 0 | [8] 0 | [9] 0 | [10] 0

Fc1ccc(-c2nc(-c3ccccc3F)[nH]c2-c2ccncc2)cc1 (2.5 µM)
inactive: [1] 0 | [2] 0 | [3] 0 | [4] 0 | [5] 0 | [6] 0 | [7] 0 | [8] 0 | [9] 0 | [10] 0

COc1cc(C(N)=O)nc(-c2cccc(C#C[C@]3(O)CCN(C)C3=O)c2)c1 (10 µM)
inactive: [1] 0 | [2] 0 | [3] 0 | [4] 0 | [5] 0 | [6] 0 | [7] 0 | [8] 0 | [9] 0 | [10] 0

Gathered by group: the compounds so far with fluorine (three)
OC(COc1ccc(C(F)(F)F)cc1)CN(Cc1ccccc1)Cc1ccccc1 (stereo not given) (2.5 µM)
inactive: [1] 0 | [2] 0 | [3] 0 | [4] 0 | [5] 0 | [6] 0 | [7] 0 | [8] 0 | [9] 0 | [10] 0

C[C@@]1(O)CCC[C@H]1n1c(=O)c(C(F)F)cc2cnc(NC3CCN(S(C)(=O)=O)CC3)nc21 (2.5 µM)
inactive: [1] 0 | [2] 0 | [3] 0 | [4] 0 | [5] 0 | [6] 0 | [7] 0 | [8] 0 | [9] 0 | [10] 0

Fc1ccc(-c2nc(-c3ccccc3F)[nH]c2-c2ccncc2)cc1 (2.5 µM)
inactive: [1] 0 | [2] 0 | [3] 0 | [4] 0 | [5] 0 | [6] 0 | [7] 0 | [8] 0 | [9] 0 | [10] 0

The listing continues:

COc1ccc(C2CC(c3ccccc3)=NN2c2ccc(S(N)(=O)=O)cc2)cc1 (stereo not given) (10 µM)
inactive: [1] 0 | [2] 0 | [3] 0 | [4] 0 | [5] 0 | [6] 0 | [7] 0 | [8] 0 | [9] 0 | [10] 0

CCn1c(C(=O)N(C2CC2)C2CC2)cc2c3c(ncn3C)c(Nc3cc(C)n(C)n3)nc21 (10 µM)
inactive: [1] 0 | [2] 0 | [3] 0 | [4] 0 | [5] 0 | [6] 0 | [7] 0 | [8] 0 | [9] 0 | [10] 0

From the supplement of paper PMC12823440, “Inhibitors supercharge kinase turnover through native proteolytic circuits” (Nature, 2025)
